Measurements from PMC6508567.
No constants are given. Whether binding was seen depends on the method and setting.

Molecular target: serpin Z4 (barley (Hordeum vulgare) cv. Harrington) (UniProt P06293)
Assay: condition: only with the reducing agent β-mercaptoethanol; cross-linking; as a5 (CuCl2 oxidation), but SDS-PAGE with the reducing agent β-mercaptoethanol, immunoblot; both purified

- binding: no binding
B1: serpin Z4 (protein, UniProt P06293 1-399)
chain: MATTLATDVRLSIAHQTRFALRLRSAISSNPERAAGNVAFSPLSLHVALSLITAGAAATRDQLVAILGDGGAGDAKELNALAEQVVQFVLANESSTGGPRIAFANGIFVDASLSLKPSFEELAVCQYKAKTQSVDFQHKTLEAVGQVNSWVEQVTTGLIKQILPPGSVDNTTKLILGNALYFKGAWDQKFDESNTKCDSFHLLDGSSIQTQFMSSTKKQYISSSDNLKVLKLPYAKGHDKRQFSMYILLPGAQDGLWSLAKRLSTEPEFIENHIPKQTVEVGRFQLPKFKISYQFEASSLLRALGLQLPFSEEADLSEMVDSSQGLEISHVFHKSFVEVNEEGTEAGAATVAMGVAMSMPLKVDLVDFVANHPFLFLIREDIAGVVVFVGHVTNPLISA
